Our source for the binding signal values is PMC7819943, “Rice protein-binding microarrays: a tool to detect cis-acting elements near promoter regions in rice”.

Protein sequences, listed by entry. Tags and fused reporters are not part of them.
UniProt Q0JBA9, entry or part of it: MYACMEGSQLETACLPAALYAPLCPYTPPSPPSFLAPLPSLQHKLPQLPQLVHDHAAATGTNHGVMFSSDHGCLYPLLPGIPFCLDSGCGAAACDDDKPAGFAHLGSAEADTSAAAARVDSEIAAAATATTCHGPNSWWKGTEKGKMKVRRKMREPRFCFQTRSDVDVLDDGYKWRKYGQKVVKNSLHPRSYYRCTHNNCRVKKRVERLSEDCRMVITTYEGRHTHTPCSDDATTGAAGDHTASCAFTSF

Some of the results follow.

This test has as its target OsWRKY34 (Oryza sativa, UniProt Q0JBA9 1-250). Description: protein-binding microarray (RPBM); PBS, 2% BSA, 51.3 ng/ul salmon testes DNA, 50 uM zinc acetate, 200 nM TF, 25 C, 1 h; high values mean tight binding. The settings on record: protein: recombinant; tags: N-terminal polyhistidine and DsRed monomer fusion (pET32a); label: CyDye5-dUTP incorporated in the synthesized complementary strand; 3' TTTTT single-stranded linker to array surface; dsDNA, one strand shown. The method, boiled down:
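Transcription factors, each fused N-terminally to a polyhistidine tag and DsRed, were expressed in E. coli BL21-CodonPlus and purified on Ni–NTA. A custom Agilent array was made double-stranded by primer extension with Cy5-dUTP and blocked with 2% BSA. It was incubated with 200 nM protein in PBS, 2% BSA, salmon testes DNA and 50 µM zinc acetate at 25 °C for 1 h, then washed. The binding signal is per-feature fluorescence intensity (arbitrary units) read on an Axon 4000B scanner.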
As for “TCTACGTGTACCGTGTTTATCCCATCTGTTTTCCCCTTTACGGAGTCACCTAGTGCAG”, the binding signal is 16000 fluorescence intensity (a.u.). For the sequence “TATCATTTATTTTATTATGACTTGATTTGTCATCAAATGTCGGAGTCACCTAGTGCAG”, the binding signal was 8390 fluorescence intensity (a.u.). For the sequence “CCTTACTTTATCATTGCGGGTGCTCTTAGGCTAACATAAACGGAGTCACCTAGTGCAG”, the binding signal is 8080 fluorescence intensity (a.u.). For “ACATCTAGCTTCATGCCTGCTTTCCTTACATAAATCCAAACGGAGTCACCTAGTGCAG”, the binding signal was 8490 fluorescence intensity (a.u.). As to “TTGATTCCGTGTCGCATATCTGTCTTAATTTCGTGGAAGGCGGAGTCACCTAGTGCAG”, the binding signal is 9570 fluorescence intensity (a.u.). For the sequence “CATGGGTTTTGTTCAGGTTGTTGAGTTCTGGATCTGGGAACGGAGTCACCTAGTGCAG”, the binding signal was 8890 fluorescence intensity (a.u.).

“TTGATCTCCACCGCCCGTTTCTTCCATCTGAGTCGTCCACCGGAGTCACCTAGTGCAG”: the binding signal was 9200 fluorescence intensity (a.u.). With “TCGAAATGTTTGACACCGTTGACTTTTTAGCATATGTTTGCGGAGTCACCTAGTGCAG”, the binding signal was 33700 fluorescence intensity (a.u.). With “TTATACAGTCCGCTAATATCGTCTTATTGTACTCACTCAACGGAGTCACCTAGTGCAG”, the binding signal was 11200 fluorescence intensity (a.u.). For “GAGGATTCAGACATTTTCATCGTTGCTCTTATTCCTTTCACGGAGTCACCTAGTGCAG”, the binding signal is 9870 fluorescence intensity (a.u.). Turning to “TCACCCATCTCGTCATCTCCACCAACGCCGGCGCCCACACCGGAGTCACCTAGTGCAG”, the binding signal was 8870 fluorescence intensity (a.u.). Next, “CCATCTACCTCAATGTTTTAGGATTCACCACTCATCACCACGGAGTCACCTAGTGCAG”: 8100 fluorescence intensity (a.u.); “AATTTCAGCTGTACCTTTTCACTCTTCTTTTCCATCTTAACGGAGTCACCTAGTGCAG”: 9460 fluorescence intensity (a.u.); “GCGGGCCCAGCTGTCATCCTCACCCCTGCCAGCCAAACTACGGAGTCACCTAGTGCAG”: 8090 fluorescence intensity (a.u.). Regarding “GCTCCTTGTTTAATTTAGACGTTGTCTTTTACTGTTTTGGCGGAGTCACCTAGTGCAG”, the binding signal was 9430 fluorescence intensity (a.u.). In the case of “AGACTTCTCATGGTACGAATGCTTTCTTTTTATTCTTCAACGGAGTCACCTAGTGCAG”, the binding signal was 10100 fluorescence intensity (a.u.). Regarding “TCAATTTGCGCGTCGCCGTCGTCTCCGCTTCTCCTAATTTCGGAGTCACCTAGTGCAG”, the binding signal was 12200 fluorescence intensity (a.u.). As to “GAACCATGGCGTTGCGGTTGGATATCCTAACTTATATGTACGGAGTCACCTAGTGCAG”, the binding signal is 10600 fluorescence intensity (a.u.). “AAGTCTTTCATTTTCCTGCCATGCTCATGAACACAAATTACGGAGTCACCTAGTGCAG”: the binding signal is 9090 fluorescence intensity (a.u.).

With “GCACCACGCCGCGCGCCGTCAAACTCCGCCGTTCCGCCACCGGAGTCACCTAGTGCAG”, the binding signal is 8390 fluorescence intensity (a.u.). Consider “TCTCTAGAAGCTTCACTACTTTTTTCATTTCTCTAACTCTCGGAGTCACCTAGTGCAG”, for which the binding signal was 8100 fluorescence intensity (a.u.). Consider “CACCTCCTCCCTCGCCGCCGCCGCCGCCGCTGACTCCCACCGGAGTCACCTAGTGCAG”, for which the binding signal is 9720 fluorescence intensity (a.u.). As for “TTATCAGTCACTGGCAGATACATTTCGTTGATCCCACTCACGGAGTCACCTAGTGCAG”, the binding signal was 8810 fluorescence intensity (a.u.). With “AGGTGAGGGGAGCGACGAGGGGTTCTTTGCGGCATACGACCGGAGTCACCTAGTGCAG”, the binding signal was 10500 fluorescence intensity (a.u.).

In the case of “CCCTCTTTCCCATCTGTGTCACCTTCCACCGCTGTTCAAACGGAGTCACCTAGTGCAG”, the binding signal is 8420 fluorescence intensity (a.u.).

With “CATGTTGCGCGTATTTGATCTGTTCATGCTTTACTGCTTACGGAGTCACCTAGTGCAG”, the binding signal was 10500 fluorescence intensity (a.u.).

In the case of “CATGAAGCCCACGAACGTATTCATTGTCATCGCCTCATTGCGGAGTCACCTAGTGCAG”, the binding signal is 8660 fluorescence intensity (a.u.). Regarding “CCTATTTTTAGTCGCTTCCTCTCTCTCTCTCTCTCTCTCTCGGAGTCACCTAGTGCAG”, the binding signal is 9540 fluorescence intensity (a.u.). On to “CCGGTCCTTCACCCACTTCAGCTTCACGTTCACCAGCGTCCGGAGTCACCTAGTGCAG”, for which the binding signal is 10200 fluorescence intensity (a.u.).

Regarding “ATTTGCATGACATATATCATTACTACATTATTTTATATAGCGGAGTCACCTAGTGCAG”, the binding signal was 8930 fluorescence intensity (a.u.). Next, “TTCCGCACCATCCATACAGACTGGCGTGTAGGCCCCACCTCGGAGTCACCTAGTGCAG”: 8510 fluorescence intensity (a.u.). With “AGTAATCGGCGCCGTCTTTTCTTCCTTCACGCCAGCGTCGCGGAGTCACCTAGTGCAG”, the binding signal was 8820 fluorescence intensity (a.u.). As for “TCTCCCACAACACCGTCGACGCCTACCGCCACACCGGAGCCGGAGTCACCTAGTGCAG”, the binding signal is 10300 fluorescence intensity (a.u.).

Consider “TTGCGCTTCTTCATTTTCTTAGTTGGTTATAATGTATGTACGGAGTCACCTAGTGCAG”, for which the binding signal was 8300 fluorescence intensity (a.u.). In the case of “GATTCGATCAATTTTTGTGCTGCATGATGTACATGTGTTACGGAGTCACCTAGTGCAG”, the binding signal is 8140 fluorescence intensity (a.u.). Turning to “TCAGATCATTTTACCACCGTCCGTTCATAACACCCATGGCCGGAGTCACCTAGTGCAG”, the binding signal was 9080 fluorescence intensity (a.u.).

As to “AATTCAAATTCATACTGTTCAAACAAAGTCATATAGAAAACGGAGTCACCTAGTGCAG”, the binding signal was 28600 fluorescence intensity (a.u.).

With “CGCCAGCCACCTCCGGCGCCGTTCGCCAGCCACCACGCGCCGGAGTCACCTAGTGCAG”, the binding signal is 9300 fluorescence intensity (a.u.). Consider “AATTAATTCCTTTATCCATTTCTCATCTGTACACTCCAACCGGAGTCACCTAGTGCAG”, for which the binding signal is 11300 fluorescence intensity (a.u.).

With “GTAAATCCTTCTCAACTTCTCCTTAATTTTCTCATCTGTTCGGAGTCACCTAGTGCAG”, the binding signal is 11400 fluorescence intensity (a.u.). As to “GCATACATATGTTGCAGGGGTGGGACAGGTGCATGCATGACGGAGTCACCTAGTGCAG”, the binding signal was 8620 fluorescence intensity (a.u.). “CCCAATTTTTTGTCTCTACTAGGGTTTGGTTTCGGTCTGACGGAGTCACCTAGTGCAG”: the binding signal is 8230 fluorescence intensity (a.u.).

Regarding “ACTTATATTTTGGTTCAGCCCTTTCCTGCACCTCCACTTTCGGAGTCACCTAGTGCAG”, the binding signal was 9300 fluorescence intensity (a.u.). As for “TTGCATGAGAGCCAATACTACCCACTTTTCCTTATCTCTCCGGAGTCACCTAGTGCAG”, the binding signal is 9380 fluorescence intensity (a.u.). With “TCTATCCATCTATGACTTTATGAAATCATGTTTATACCGTCGGAGTCACCTAGTGCAG”, the binding signal is 9860 fluorescence intensity (a.u.). In the case of “AACTGGTTGGAGCTCCGTTTCTCTACTCTTTGAGCTTCTTCGGAGTCACCTAGTGCAG”, the binding signal was 8240 fluorescence intensity (a.u.). Next, “AATATATGACGCCGTTAACTTTTCGAACAACATTTGACTACGGAGTCACCTAGTGCAG”: 9760 fluorescence intensity (a.u.). As for “CCCATTGTTCCCGCCGCCGCCGCGCCACGCGTCGCTCTGACGGAGTCACCTAGTGCAG”, the binding signal was 12200 fluorescence intensity (a.u.). In the case of “TTGGTTTGTATTGCGTTGTTTTGCACTTTTGTTTGTTGTGCGGAGTCACCTAGTGCAG”, the binding signal was 8300 fluorescence intensity (a.u.). On to “AAGTCGTCGCCTCCGGATTGCCCGCTGCTTGCCACCTCTCCGGAGTCACCTAGTGCAG”, for which the binding signal was 8110 fluorescence intensity (a.u.). Turning to “ATTTTTTGCTTCAGGAATTCATCTTTTTTATTTTTTATTTCGGAGTCACCTAGTGCAG”, the binding signal is 9060 fluorescence intensity (a.u.). Turning to “CTTATATGCCATTGGTCCAAATTTGCGCACCCTCTCGTGCCGGAGTCACCTAGTGCAG”, the binding signal was 10100 fluorescence intensity (a.u.). Next, “TGGGATGTATTTGAGTTGTGATGCATTTCTTTTAGGATTTCGGAGTCACCTAGTGCAG”: 8310 fluorescence intensity (a.u.).

With “GCAAATGCCATTCTTCAGGTCGCCTTCACAAATAACCAACCGGAGTCACCTAGTGCAG”, the binding signal was 9520 fluorescence intensity (a.u.).
